From article PMC5996148 come the findings set out here.

Amino acid sequences for entries named in this document (tags omitted). A change or cut given only in a name is not applied to a line headed by its entry.
UniProt Q8NC51: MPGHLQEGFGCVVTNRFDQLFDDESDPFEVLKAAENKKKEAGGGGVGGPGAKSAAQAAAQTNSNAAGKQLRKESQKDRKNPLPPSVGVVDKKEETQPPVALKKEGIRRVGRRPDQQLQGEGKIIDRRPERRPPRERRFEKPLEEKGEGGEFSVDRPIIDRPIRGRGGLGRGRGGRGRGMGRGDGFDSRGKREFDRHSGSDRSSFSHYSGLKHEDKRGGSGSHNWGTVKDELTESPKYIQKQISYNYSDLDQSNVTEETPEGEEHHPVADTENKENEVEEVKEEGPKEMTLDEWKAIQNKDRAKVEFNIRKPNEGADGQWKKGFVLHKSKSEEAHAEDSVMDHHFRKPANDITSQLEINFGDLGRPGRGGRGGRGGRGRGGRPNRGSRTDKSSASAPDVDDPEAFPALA
UniProt P08185: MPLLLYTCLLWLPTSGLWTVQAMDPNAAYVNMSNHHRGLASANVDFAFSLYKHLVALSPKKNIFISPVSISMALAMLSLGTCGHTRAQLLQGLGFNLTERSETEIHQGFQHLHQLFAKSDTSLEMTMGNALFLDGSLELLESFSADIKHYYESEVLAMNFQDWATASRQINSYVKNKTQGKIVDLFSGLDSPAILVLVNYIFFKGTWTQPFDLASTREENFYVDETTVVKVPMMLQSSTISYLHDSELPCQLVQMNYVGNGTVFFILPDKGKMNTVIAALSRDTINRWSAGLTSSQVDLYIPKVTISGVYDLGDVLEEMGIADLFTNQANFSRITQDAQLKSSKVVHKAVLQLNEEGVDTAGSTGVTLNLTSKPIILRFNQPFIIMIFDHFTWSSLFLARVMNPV

Test systems include SEC13L1 (human); SELPLG (human); SENP8 (human); SEPHS2 (human); SEPP1 (human); SEPT11 (human); SEPT4 (human); SEPT6 (human); SEPT9 (human); SERF1A (human); SERPINA6 (human); SERPINA7 (human); SERPINB1 (human); SERPINB2 (human); SERPINB6 (human); SERPINB7 (human); SERPINB9 (human).
Assay in all cases: protein microarray (ProtoArray v5.0), streptavidin-Alexa Fluor 647
What all share (conditions): 3'-biotin; 20 mM Tris (pH 7.5), 5 mM MgCl2, 100 mM KCl, 0.1% Tween-20, A/T-rich and random oligonucleotide blockers; temperature not stated; high values mean tight binding

Another assay addresses SERBP1 (UniProt Q8NC51).
In another assay the target is SERPINA6 (UniProt P08185).
The target in the next assay is T1, SERPINF1 (UniProt P36955).
T1 sequence: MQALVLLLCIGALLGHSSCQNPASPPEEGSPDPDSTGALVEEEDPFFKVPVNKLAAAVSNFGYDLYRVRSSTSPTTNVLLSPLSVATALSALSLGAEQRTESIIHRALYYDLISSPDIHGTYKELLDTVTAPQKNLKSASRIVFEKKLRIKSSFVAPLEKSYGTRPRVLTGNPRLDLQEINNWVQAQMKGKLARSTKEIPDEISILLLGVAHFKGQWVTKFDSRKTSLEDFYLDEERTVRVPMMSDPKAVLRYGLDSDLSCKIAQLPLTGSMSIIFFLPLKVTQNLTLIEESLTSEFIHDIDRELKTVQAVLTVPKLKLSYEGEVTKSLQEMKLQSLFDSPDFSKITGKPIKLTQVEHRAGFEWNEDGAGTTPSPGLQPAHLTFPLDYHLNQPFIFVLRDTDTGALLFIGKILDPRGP

Several values for one entry are separate records, joined by “and”; a condition that tells them apart may be missing. Identical values can stand only once. This is one part of the list. For some assays here: The exact form of the protein is not confirmed.

“GGTGACAGGGGTATGGGGAGGGG [G4-2 biotinylated (Ct1)]”: the binding signal was -0.39 z-score in the assay on SEC13L1 (human); -0.383 z-score in the assay with SELPLG (human); -0.406 z-score with SENP8 (human); -0.4 z-score in the assay on SEPHS2 (human); -0.373 z-score in the assay on SEPP1 (human); -0.398 z-score in the assay on SEPT11 (human). Besides, the binding signal with SEPT4 (human) was -0.37 z-score; in the assay on SEPT6 (human) it was -0.368 z-score and -0.384 z-score; in the assay with SEPT9 (human) it was -0.376 z-score; with SERBP1 it was 4.58 z-score and 5.11 z-score; in the assay on SERF1A (human), 4.23 z-score; in the assay with SERPINA6, -0.365 z-score. The binding signal in the assay with SERPINA6 (human) is -0.391 z-score; in the assay on SERPINA7 (human), -0.389 z-score; in the assay with SERPINB1 (human), -0.395 z-score; in the assay with SERPINB2 (human) it was -0.38 z-score; in the assay on SERPINB6 (human) it was -0.365 z-score; with SERPINB7 (human), -0.366 z-score. Moreover, the binding signal with SERPINB9 (human) is -0.357 z-score; with SERPINF1, 5.71 z-score.
